Test results as given in PubChem BioAssay AID330 (DTP/NCI, 2004).
The list shows only some results of the screen, not a fair sample: it is rich in T/C values a quarter to a half above the control, in often repeated tests (any T/C) and in doses without a T/C. Further doses and runs are listed elsewhere. T/C is the treated group as % of the vehicle group. Some entries give survivors of the animals treated and no T/C: the source holds a T/C of zero for them, seemingly a mark for toxic or unscored doses. Some doses without a T/C left all or most animals alive at the check, yet need not have been tolerated: the source hardly ever lists a survival T/C far under the control, and the zero likely stands for such cases as well. Survivors were counted at the toxicity check, usually on the fifth day, unless a day is given; later deaths do not show. Schedules are NCI's codes, taken here to give the interval after Q, in days (D) or hours (H), and the number of doses after X. Some entries were tested several times; the values are given in rising order.

Tested on: P388 leukemia ip, CD2F1 mice, survival T/C
Test: NCI In Vivo Anticancer Drug Screen. Data for tumor model P388 Leukemia (intraperitoneal) in CD2F1 (CDF1) mice
Settings: T/C endpoint: median survival time, higher T/C = longer survival
[1] = dose: 50.0 mg/kg/injection, schedule: Q01DX009 (ip), vehicle: saline with Tween-80
[2] = dose: 100.0 mg/kg/injection, schedule: Q01DX009 (ip), vehicle: Klucel (hydroxypropylcellulose) (HPC)
[3] = dose: 200.0 mg/kg/injection, schedule: Q01DX009 (ip), vehicle: Klucel (hydroxypropylcellulose) (HPC)
[4] = dose: 240.0 mg/kg/injection, schedule: Q01DX005 (ip), vehicle: Klucel (hydroxypropylcellulose) (HPC)
[5] = dose: 60.0 mg/kg/injection, schedule: Q01DX005 (ip), vehicle: saline with Tween-80
[6] = dose: 120.0 mg/kg/injection, schedule: Q01DX005 (ip), vehicle: saline with Tween-80
[7] = dose: 240.0 mg/kg/injection, schedule: Q01DX005 (ip), vehicle: saline with Tween-80

## COc1ccc(C2CC(=O)N(CN3CCN(c4ccc(Cl)cc4)CC3)C(=O)C2)cc1
[1]
  survivor count: 6 of 6
dose: 100.0 mg/kg/injection, schedule: Q01DX009 (ip), vehicle: saline with Tween-80
  survivor count: 6 of 6

## O=c1[nH]c2c(cnn2-c2ccc(Cl)cc2)c(=O)n1-c1cccc(Cl)c1
[2]
  survivor count: 4 of 6
[3]
  survivor count: 0 of 6

## O=C(O)C1C(CCl)=C1CCl
[4]
  survivor count: 3 of 6

## COc1ccc(/C=N\NC(=O)CNC(=O)Nc2cccc([N+](=O)[O-])c2)cc1O
[5]
  survivor count: 6 of 6
[6]
  survivor count: 6 of 6

## O=S(=O)(c1ccc(Cl)cc1)N(Cl)Cl
[2]
  survivor count: 0 of 6
[3]
  survivor count: 0 of 6

## CCC[CH2][Sn]([CH2]CCC)([N]=C=S)[N]=C=S
dose: 6.25 mg/kg/injection, schedule: Q01DX009 (ip), vehicle: saline
  survivor count: 4 of 6
dose: 12.5 mg/kg/injection, schedule: Q01DX009 (ip), vehicle: saline
  survivor count: 1 of 6
dose: 25.0 mg/kg/injection, schedule: Q01DX009 (ip), vehicle: saline
  survivor count: 0 of 6
dose: 50.0 mg/kg/injection, schedule: Q01DX009 (ip), vehicle: suspension in saline
  survivor count: 5 of 6
dose: 100.0 mg/kg/injection, schedule: Q01DX009 (ip), vehicle: suspension in saline
  survivor count: 2 of 6
dose: 200.0 mg/kg/injection, schedule: Q01DX009 (ip), vehicle: suspension in saline
  survivor count: 0 of 6

## CCC(=O)NCC(CN(C)C)(c1ccccc1)c1ccccc1
dose: 400.0 mg/kg/injection, schedule: Q01DX001 (ip), vehicle: saline with Tween-80
  survivor count: 0 of 6

## C[N+](C)(Cn1nc(Cl)c2cc([N+](=O)[O-])ccc21)Cn1nc(Cl)c2cc([N+](=O)[O-])ccc21
dose: 100.0 mg/kg/injection, schedule: Q04DX003 (ip), vehicle: saline with Tween-80
  survivor count: 6 of 6
dose: 400.0 mg/kg/injection, schedule: Q04DX003 (ip), vehicle: saline with Tween-80
  survivor count: 5 of 6

## CCCCCCCCCCCCCCCC(=O)N(CCCCN(C(=O)CCCCCCCCCCCCCCC)C(C)CCCN(CC)CC)C(C)CCCN(CC)CC (stereo not given)
dose: 100.0 mg/kg/injection, schedule: Q01DX009 (ip), vehicle: other
  survivor count: 0 of 6
dose: 200.0 mg/kg/injection, schedule: Q01DX009 (ip), vehicle: other
  survivor count: 0 of 6
dose: 400.0 mg/kg/injection, schedule: Q01DX009 (ip), vehicle: other
  survivor count: 0 of 6

## COc1cc2c(cc1OC)-c1c(C)c3ccc(OC)c(NCCO)c3c[n+]1CC2
dose: 200.0 mg/kg/injection, schedule: Q04DX003 (ip), vehicle: water
  survivor count: 5 of 6
dose: 400.0 mg/kg/injection, schedule: Q04DX003 (ip), vehicle: water
  survivor count: 0 of 6

## C=CC(=C)C1(O)c2ccccc2C(=O)N1C (stereo not given)
[4]
  survivor count: 1 of 6

## O=[N+]([O-])c1ccc(CN2CCC(C(=S)Nc3ccccc3)=C2c2ccccc2)cc1
dose: 50.0 mg/kg/injection, schedule: Q01DX005 (ip), vehicle: Klucel (hydroxypropylcellulose) (HPC)
  survivor count: 5 of 6

## O=S1(=O)C=C(Cl)C1
dose: 200.0 mg/kg/injection, schedule: Q01DX005 (ip), vehicle: saline with Tween-80
  survivor count: 0 of 6

## CC(CC(C)C)=NC(C)CC(C)C (stereo not given)
dose: 200.0 mg/kg/injection, schedule: Q01DX005 (ip), vehicle: saline
  survivor count: 3 of 6

## O=C(O)CC[n+]1cccc2c1C(=O)C(=O)c1ncccc1-2
dose: 400.0 mg/kg/injection, schedule: Q04DX002 (ip), vehicle: saline
  survivor count: 5 of 6

## N#Cc1c2ccccc2cc[n+]1Cc1ccc2c(c1)OCO2
dose: 25.0 mg/kg/injection, schedule: Q04DX002 (ip), vehicle: Klucel (hydroxypropylcellulose) (HPC)
  survivor count: 4 of 6
dose: 50.0 mg/kg/injection, schedule: Q04DX002 (ip), vehicle: Klucel (hydroxypropylcellulose) (HPC)
  survivor count: 0 of 6
dose: 100.0 mg/kg/injection, schedule: Q04DX002 (ip), vehicle: Klucel (hydroxypropylcellulose) (HPC)
  survivor count: 0 of 6
dose: 200.0 mg/kg/injection, schedule: Q04DX002 (ip), vehicle: Klucel (hydroxypropylcellulose) (HPC)
  survivor count: 0 of 6
dose: 400.0 mg/kg/injection, schedule: Q04DX002 (ip), vehicle: Klucel (hydroxypropylcellulose) (HPC)
  survivor count: 0 of 6

## O=c1oc2ccccc2c(O)c1C(c1ccc2c(c1)OCO2)N1CCCC1 (stereo not given)
[6]
  survivor count: 2 of 6
[7]
  survivor count: 0 of 6

## CCN(CC)CCOC(=O)C(OCCC(C)C)(c1ccccc1)c1ccccc1
dose: 200.0 mg/kg/injection, schedule: Q01DX005 (ip), vehicle: Klucel (hydroxypropylcellulose) (HPC)
  survivor count: 1 of 6

## O=C(O)CCc1nc(-c2ccccc2-n2cccc2)no1
dose: 200.0 mg/kg/injection, schedule: Q01DX009 (ip), vehicle: saline with Tween-80
  survivor count: 0 of 6

## Nc1ccccn1
dose: 50.0 mg/kg/injection, schedule: Q01DX009 (ip), vehicle: saline
  survivor count: 0 of 6
dose: 100.0 mg/kg/injection, schedule: Q01DX009 (ip), vehicle: saline
  survivor count: 0 of 6
dose: 200.0 mg/kg/injection, schedule: Q01DX009 (ip), vehicle: saline
  survivor count: 0 of 6

## COC(=O)NC1C(=O)CCC(=O)C1C(N)=O (stereo not given)
dose: 30.0 mg/kg/injection, schedule: Q01DX005 (ip), vehicle: saline with Tween-80
  survivor count: 3 of 6
[5]
  survivor count: 0 of 6
[6]
  survivor count: 0 of 6
[7]
  survivor count: 0 of 6

## O=S(c1ccccc1)c1c(Cl)c(Cl)nc(Cl)c1Cl (stereo not given)
dose: 33.0 mg/kg/injection, schedule: Q01DX009 (ip), vehicle: saline with Tween-80
  survivor count: 4 of 6
[1]
  survivor count: 4 of 6 and 6 of 6
dose: 75.0 mg/kg/injection, schedule: Q01DX009 (ip), vehicle: saline with Tween-80
  survivor count: 0 of 6 and 1 of 6

## C=C(C)C1CC2(C)C(C)C(OC(=O)/C(C)=C\C)CCC2C(O)C1=O (stereo not given)
dose: 60.0 mg/kg/injection, schedule: Q04DX002 (ip), vehicle: distilled water + alcohol
  survivor count: 1 of 6
dose: 115.0 mg/kg/injection, schedule: Q04DX002 (ip), vehicle: distilled water + alcohol
  survivor count: 0 of 6
dose: 230.0 mg/kg/injection, schedule: Q04DX002 (ip), vehicle: distilled water + alcohol
  survivor count: 0 of 6
